# Source: PubChem BioAssay AID977622 (Broad Institute, 2014)
# Some of the results follow.
# Assay: growth inhibition of wild-type GFP E. coli, dose response, h38 mutant RFP, cherry-pick (AID 977622)
# Conditions: 24 h
smiles,measurement,setting,value
O=[N+]([O-])c1cc([N+](=O)[O-])c(Nc2nnnn2CCO)c([N+](=O)[O-])c1,activity change,"E. coli WT ribosome GFP fluorescence, mixed culture, h38 mutant RFP at 50 uM",16.8%
same,activity change,"E. coli mixed culture, total growth OD600 at 50 uM",4.97%
